From the supplement of paper PMC12542422
Structures can show the parent of a compound that is named as a salt. ± gives the standard deviation of the averaged measurements. The list shows a part of the results. Values are raw readings; no control value is given beside them.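 HeLa cells imaged for ribosome-assembly readouts (ENP1 staining with or without export block, or inducible tagged ribosomal protein reporters); machine learning classified each cell's signal location against solvent (DMSO) controls. Hits exceeded the DMSO false-positive mean by five standard deviations, then were visually confirmed; three biological replicates.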

Test system: HeLa RPL29-GFP reporter
Test: fraction of reporter-positive cells with nuclear (nucleolar or nucleolar/nucleoplasmic) RPL29-GFP (MainHitrate); higher = more cells with nucleolar/nuclear readout signal (for ENP1 -LMB: less RNAPI inhibition; for +LMB ENP1 and RP reporters: stronger nuclear/nucleolar retention, i.e. ribosome biogenesis defect)
Conditions: concentration: 1 µM; treatment time: 6 h

Compound | fraction of reporter-positive cells with nuclear
O=C1CC[C@@H](C(=O)N2CSC[C@H]2C(=O)O)N1 [Pidotimod] | 0.219 ± 0.062
COC(=O)[C@H](Cc1ccccc1)NC(=O)[C@@H](N)CC(=O)O [Aspartame] | 0.224 ± 0.077
CNCCc1ccccn1 [Betahistine 2HCl] | 0.208 ± 0.074
Cc1onc(-c2ccccc2Cl)c1C(=O)N[C@@H]1C(=O)N2[C@@H]1SC(C)(C)[C@@H]2C(=O)O [Cloxacillin sodium (Cloxacap)] | 0.212 ± 0.054
O=C(Nc1ccc([N+](=O)[O-])cc1Cl)c1cc(Cl)ccc1O [Niclosamide (Niclocide)] | 0.222 ± 0.086
CO[C@@H]1[C@@H](OC(N)=O)[C@@H](O)[C@H](Oc2ccc3c(O)c(NC(=O)c4ccc(O)c(CC=C(C)C)c4)c(=O)oc3c2C)OC1(C)C [Novobiocin sodium (Albamycin)] | 0.265 ± 0.067
O=C(O)/C=C/c1ccc(Cn2ccnc2)cc1 [Ozagrel] | 0.223 ± 0.053
CC(C)CN(C[C@@H](O)[C@H](Cc1ccccc1)NC(=O)O[C@H]1CCOC1)S(=O)(=O)c1ccc(N)cc1 [Amprenavir (Agenerase)] | 0.212 ± 0.062
CNC(=O)c1cc(Oc2ccc(NC(=O)Nc3ccc(Cl)c(C(F)(F)F)c3)cc2)ccn1 [Sorafenib (Nexavar)] | 0.217 ± 0.052
CN(C)CCCN1c2ccccc2CCc2ccc(Cl)cc21 [Clomipramine hydrochloride (Anafranil)] | 0.225 ± 0.058
CCCCCCCCCCCCCCCC[N+](C)(C)C [Cetrimonium Bromide] | 0.213 ± 0.049
CCOc1nc2cccc(C(=O)OCc3oc(=O)oc3C)c2n1Cc1ccc(-c2ccccc2-c2noc(=O)[nH]2)cc1 [Azilsartan Medoxomil (TAK-491)] | 0.213 ± 0.1
O=C1CCc2ccc(OCCCCN3CCN(c4cccc(Cl)c4Cl)CC3)cc2N1 [Aripiprazole (Abilify)] | 0.254 ± 0.11
Oc1ccc(/C=C/c2cc(O)cc(O)c2)cc1 [Resveratrol] | 0.21 ± 0.065
COc1ccc(-n2nc(C(N)=O)c3c2C(=O)N(c2ccc(N4CCCCC4=O)cc2)CC3)cc1 [Apixaban] | 0.209 ± 0.069
Nc1ccc(/N=N/c2ccccc2)c(N)n1 [Phenazopyridine HCl] | 0.199 ± 0.066
N#Cc1ccc(C(c2ccc(C#N)cc2)n2cncn2)cc1 [Letrozole] | 0.207 ± 0.074
CCN(CC)CCOc1ccc(C(=C(Cl)c2ccccc2)c2ccccc2)cc1 [Clomifene citrate (Serophene)] | 0.271 ± 0.078

Three entries already listed, sorted by number of heavy atoms, ascending.
Compound | fraction of reporter-positive cells with nuclear
CN(C)CCCN1c2ccccc2CCc2ccc(Cl)cc21 [Clomipramine hydrochloride (Anafranil)] | 0.225 ± 0.058
CCN(CC)CCOc1ccc(C(=C(Cl)c2ccccc2)c2ccccc2)cc1 [Clomifene citrate (Serophene)] | 0.271 ± 0.078
CC(C)CN(C[C@@H](O)[C@H](Cc1ccccc1)NC(=O)O[C@H]1CCOC1)S(=O)(=O)c1ccc(N)cc1 [Amprenavir (Agenerase)] | 0.212 ± 0.062
